Laboratory results: patent US20150246136A1 (priority 2011, published 2015)

Experiment: general procedure: solution-phase peptide synthesis; HATU/DIPEA or EDC/HOBt/DIPEA
Settings: trifluoroacetate

Substance | step yield (late stage modification step) | other results
Boc-Intermediate 55 | – | step yield (coupling step): 81% of theory
N-(3-aminopropyl)-N-methyl-L-valyl-N-[(3R,4S,5S)-3-methoxy-1-{(2S)-2-[(1R,2R)-1-methoxy-2-methyl-3-{[(1S,2R)-1-(1,2-oxazinan-2-ylcarbonyl)-2-phenylcyclopropyl]amino}-3-oxopropyl]pyrrolidin-1-yl}-5-methyl-1-oxoheptan-4-yl]-N-methyl-L-valinamide | – | step yield (late stage modification step, over two stages): 41% of theory over two stages
N-(3-carboxypropyl)-N-methyl-L-valyl-N-[(3R,4S,5S)-1-{(2S)-2-[(1R,2R)-3-{[(2S)-1-(adamantan-1-ylmethoxy)-1-oxo-3-phenylpropan-2-yl]amino}-1-methoxy-2-methyl-3-oxopropyl]pyrrolidin-1-yl}-3-methoxy-5-methyl-1-oxoheptan-4-yl]-N-methyl-L-valinamide | 73% of theory | –
N-(3-carboxypropyl)-N-methyl-L-valyl-N-[(3R,4S,5S)-1-{(2S)-2-[(1R,2R)-3-{[(2S)-1-(benzyloxy)-1-oxo-3-phenylpropan-2-yl]amino}-1-methoxy-2-methyl-3-oxopropyl]pyrrolidin-1-yl}-3-methoxy-5-methyl-1-oxoheptan-4-yl]-N-methyl-L-valinamide | 39% of theory | –
N-(3-carboxypropyl)-N-methyl-L-valyl-N-[(3R,4S,5S)-1-{(2S)-2-[(1R,2R)-3-{[(2S)-1-(benzyloxy)-3-phenylpropan-2-yl]amino}-1-methoxy-2-methyl-3-oxopropyl]pyrrolidin-1-yl}-3-methoxy-5-methyl-1-oxoheptan-4-yl]-N-methyl-L-valinamide | 65% of theory | –
N-(3-carboxypropyl)-N-methyl-L-valyl-N-[(3R,4S,5S)-3-methoxy-1-{(2S)-2-[(1R,2R)-1-methoxy-2-methyl-3-{[(2S)-1-(1,2-oxazinan-2-yl)-1-oxo-3-phenylpropan-2-yl]amino}-3-oxopropyl]pyrrolidin-1-yl}-5-methyl-1-oxoheptan-4-yl]-N-methyl-L-valinamide | 70% of theory | –
